Measured values as given in PubChem BioAssay AID504834 (National Center for Advancing Translational Sciences (NCATS), 2011).
Out of some 320,000 compounds screened, about 22,000 (6.9%) were called active. The inconclusive results got no clear call from the source; some entries with a clear call stand among them for comparison. Calls follow the shape of the dose curve; as a rule, active = well fitted inhibition curve with a large enough effect; inconclusive = small, poorly fitted or top-dose-only effect, or another doubt; inactive = no such curve, though single readings can be large or run the other way. Potencies of inconclusive entries are doubtful fits and often do not repeat.
Potency is read from the fitted curve at half-maximal effect.

Assay: Primary qHTS for delayed death inhibitors of the malarial parasite plastid, 96 hour incubation
Details: P. falciparum luciferase reporter growth; series mostly up to 28.7 µM
How it was run: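 P. falciparum expressing integrated firefly luciferase grown in erythrocytes (2% hematocrit, 0.05% parasitemia final) with compounds for 96 hours at 37 C, 5% CO2. Growth inhibition read as loss of luminescence after adding luciferase detection reagent.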
For CC(C)[C@@H](N)C(=O)N/N=C/c1ccc2nccnc2c1, the Potency was inconclusive: 18.5 µM [inhibitor, single point]. For CCNc1nc(NCC)nc(SCC(C)=O)n1, the Potency was inconclusive: 5.22 µM [inhibitor, single point]. For O=[N+]([O-])c1ccc2nc(SCc3cn4cccnc4n3)[nH]c2c1, the Potency was inconclusive: 10.4 µM [inhibitor, partial curve, poor fit]. In the case of COCCNC(=O)CN1N=C(c2ccc(C)cc2)CCC1=O, the Potency is reported as “inactive”. For O=C(NC(C(=O)c1ccccc1)N1CCCCC1)c1ccccc1 (configuration not stated), the Potency was “inactive”. With Cc1c(-c2cc(Br)ccc2O)nc2cc3c(cc2c1C)OCO3 the Potency was inconclusive: 2.62 µM [inhibitor, full curve]. For COc1cccc(NC(=O)CN(C)C(=O)c2cc(-c3cccc(Br)c3)nc3ccccc23)c1, the Potency was inconclusive: 18.5 µM [inhibitor, single point]. For O=C(Nc1ccc(CN2CCS(=O)(=O)CC2)cc1)c1ccc(C(F)(F)F)cc1, the Potency was inconclusive: 0.928 µM [inhibitor, full curve, poor fit]. With CCOc1ccc(/C=N/NC(=O)c2cc3c(OC)cccc3[nH]2)cc1 the Potency was inconclusive: 10.4 µM [inhibitor, partial curve]. In the case of Cn1ncc(Br)c1NC(=O)c1ccco1, the Potency is reported as “inactive”. For CCOc1ccc(CCNC(=O)COC(=O)CCc2cc(OC)c(OC)c(OC)c2)cc1OCC, the Potency was inconclusive: 11.7 µM [inhibitor, single point]. In the case of CN(C)CCSc1nc(N)c2c3c(sc2n1)COC(C)(C)C3, the Potency is reported as inconclusive: 10.4 µM [inhibitor, single point]. For COc1ccccc1C1=NNC(=Nc2cccc(S(=O)(=O)N(C)C)c2)SC1, the Potency was inconclusive: 2.33 µM [inhibitor, full curve, poor fit]. For N#Cc1cc(S(=O)(=O)c2ccccc2)c(N)[nH]c1=O, the Potency was inconclusive: 0.0522 µM [inhibitor, full curve, poor fit]. In the case of CCOC(=O)C1=C(c2ccccc2)NC(SC)=C(C#N)C1c1cccnc1 (configuration not stated), the Potency is reported as active: 11.7 µM. With COc1ccc(Cn2cc(F)c(=O)n(CCC(C)C)c2=O)cc1[N+](=O)[O-] the Potency was inconclusive: 11.7 µM [inhibitor, partial curve, poor fit]. In the case of Cc1cccc(OC(C)C(=O)Nc2nc(-c3ccncc3)cs2)c1 (configuration not stated), the Potency is reported as inconclusive: 13.1 µM [inhibitor, single point]. In the case of Cc1c(OCC(=O)NCCCN2CCCC2=O)ccc2c3c(c(=O)oc12)CCC3, the Potency is reported as inconclusive: 18.5 µM [inhibitor, single point]. With CC(=O)c1ccc(OCC(O)CN2CCN(CC(O)COc3ccc(C(C)=O)cc3)CC2)cc1 (configuration not stated) the Potency was “inactive”. For Cc1cccc(C(=O)NC2CCN(S(=O)(=O)c3ccccc3)CC2)c1, the Potency was “inactive”. In the case of CC12CCC(=O)N1C(C(=O)Nc1cc(C(F)(F)F)ccc1N1CCCCC1)CS2 (configuration not stated), the Potency is reported as inconclusive: 10.4 µM [inhibitor, single point]. With CCC(=Nc1ccccc1O)C1=C(O)CC(c2ccccc2)CC1=O (configuration not stated) the Potency was inconclusive: 18.5 µM [inhibitor, single point]. With CC1=NN(c2ccccc2)C(=O)C1C(=O)c1ccccc1 (configuration not stated) the Potency was “inactive”. With CCCCCc1nnc(NC(=O)CN2C(=O)C3CCCCC3C2=O)s1 (configuration not stated) the Potency was “inactive”. With COC(=O)N/N=C/c1cn(CCOc2ccc(OC)cc2)c2ccccc12 the Potency was inconclusive: 1.65 µM [inhibitor, partial curve]. With CC(=O)Nc1cccc(OCCCNC(=O)c2ccc(C(C)(C)C)cc2)c1 the Potency was inconclusive: 5.86 µM [inhibitor, partial curve]. With CCN(CC)Cc1c(O)ccc2occ(C(=O)c3ccc(OC)cc3)c12 the Potency was inconclusive: 18.5 µM [inhibitor, single point]. In the case of Cc1nc2sc(C(c3ccc(C(C)C)cc3)N3CCN(CCO)CC3)c(O)n2n1 (configuration not stated), the Potency is reported as inconclusive: 18.5 µM [inhibitor, single point]. With CCOc1cc2[nH]c(=S)n(CCCC(=O)NCc3ccccn3)c(=O)c2cc1OCC the Potency was inconclusive: 13.1 µM [inhibitor, single point]. With CCCSC1=C(C#N)C(c2ccccc2OCC)CC(=O)N1 (configuration not stated) the Potency was active: 5.22 µM. In the case of N#Cc1c(-c2ccccc2)c(-c2ccccc2)nn(CC(=O)NNC(=O)Nc2ccccc2)c1=O, the Potency is reported as inconclusive: 18.5 µM [inhibitor, single point]. In the case of CC1=C(C(=O)O)N2C(=O)C(NC(=O)c3ccccc3Cl)C2SC1 (configuration not stated), the Potency is reported as inconclusive: 14.7 µM [inhibitor, single point]. With O=c1[nH]c2ccccc2[n+]([O-])c1-c1ccccc1 the Potency was “inactive”. In the case of NS(=O)(=O)c1ccc(-c2cccc(/C=C3\SC(=O)NC3=O)c2)cc1, the Potency is reported as inconclusive: 0.0657 µM [inhibitor, full curve, poor fit]. In the case of COc1ccc(N(CC(=O)NCc2ccccc2Cl)S(=O)(=O)c2c(C)noc2C)cc1, the Potency is reported as inconclusive: 14.7 µM [inhibitor, single point]. For COc1ccc(/C=C/c2noc(-c3ccccc3O)n2)cc1, the Potency was inconclusive: 16.5 µM [inhibitor, partial curve, poor fit]. In the case of CC(=O)N1CCN(c2ccc(Oc3ccc([N+](=O)[O-])c(C(F)(F)F)c3)cc2)CC1, the Potency is reported as inconclusive: 11.7 µM [inhibitor, single point]. With O=C(CCCN1C(=O)[C@H]2CC=CC[C@H]2C1=O)NCc1nc(-c2ccccc2)no1 the Potency was inconclusive: 18.5 µM [inhibitor, partial curve, poor fit]. With c1csc(CSc2nc3ccccc3s2)c1 the Potency was inconclusive: 18.5 µM [inhibitor, single point]. For CCCn1c(SCC(=O)N2c3ccccc3CC2C)nnc1-c1ccco1 (configuration not stated), the Potency was inconclusive: 7.38 µM [inhibitor, partial curve, poor fit]. For Cc1c(NC(=O)/C=C/c2cn(-c3ccccc3)nc2-c2ccc(F)cc2)c(=O)n(-c2ccccc2)n1C, the Potency was active: 9.28 µM. With Cc1ccc(CCC(=O)NCc2ccccc2)o1 the Potency was inconclusive: 14.7 µM [inhibitor, partial curve, poor fit].
